For at least one entry, the source does not settle the construct or the ends of the probe. At least one result comes from cells or an extract, where the contact may be indirect.
System: GRP7 and/or GRP8 (antibody recognizes both) (Arabidopsis thaliana)
Experiment: pull-down
Settings: RIP-qPCR positive control, significant over IgG; protein in cells; protein details: native, formaldehyde-crosslinked roots

Chains of the proteins cited; added tags and fusions are not shown. Chains listed by the source or under a name are the forms on record and can include a tag or linker.
GRP7 and/or GRP8 (antibody recognizes both) (Arabidopsis thaliana), one chain, as listed by the source: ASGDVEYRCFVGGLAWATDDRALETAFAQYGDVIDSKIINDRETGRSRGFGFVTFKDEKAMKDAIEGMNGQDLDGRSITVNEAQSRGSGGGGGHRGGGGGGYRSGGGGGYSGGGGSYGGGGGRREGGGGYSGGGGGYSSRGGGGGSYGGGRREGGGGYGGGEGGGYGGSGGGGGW

“AACCCUAGUUAUUACGUCACACCUGUUCUAUAAAUUAAGGCUGCGUCUUAUCACCUCAAAUCACAUAAGUCUCUCUCUUACAUUUUGAAACCCUAAUUUCUCUUCUUUUCCCCAAAAAAAAAUGUCUGAAGUUGAGUACCGGUGCUUUGUCGGCGGCCUUGCCUGGGCCACCAAUGAUGAAGAUCUUCAAAGGACGUUCUCACAGUUCGGCGACGUUAUCGAUUCUAAGAUCAUUAACGACCGCGAGAGUGGAAGAUCAAGGGGAUUCGGAUUCGUCACCUUCAAGGACGAGAAAGCCAUGAGGGAUGCGAUUGAAGAGAUGAACGGUAAAGAGCUCGAUGGACGUGUCAUCACCGUGAACGAGGCUCAGUCGAGAGGUAGCGGCGGUGGCGGAGGAGGCCGUGGUGGAAGCGGUGGUGGUUACCGCAGCGGAGGCGGUGGUGGAUACUCAGGAGGCGGUGGCGGCGGAUACUCAGGAGGAGGCGGUGGUGGUUACGAGAGACGUAGCGGAGGUUACGGAUCUGGUGGAGGCGGUGGUGGCCGAGGAUACGGUGGUGGUGGACGCCGUGAGGGAGGUGGCUACGGAGGCGGUGAUGGUGGAAGUUACGGAGGCGGUGGUGGCGGCUGGUAAUCAAAGAUAGAGUUGUUUGCGUGCUGCUGCUCUGUUUUUGGUUUAGAUUUGGUUUUGUGUCACCACUUCUGGUUUGGUUAUCGUUCGUUUGGUUUACUUUUUUGAUGAAACAGUUUCGUUUAAGUCUUCUUUGUCUGGAACGAAAUGUUAAUUCGCGUGUUGUUUACUAAAUUUAUAACGUUUCCUUUUAACCAGAUUCGAGAUUUUCCCUCAAAUAAUUUAUCUUGUUAGACACAUGUAUUUAAUCGAACAGCAGCUAAAGGAUUC [GRP8 transcript]”: binds.
